These are yes or no findings as the source states them, for the method shown. In cells and extracts the contact can be indirect. A yes stands for co-enrichment or nearness to the bait. Other partners may have been found. Each block holds one molecule with its values, some of them ahead of it.
Target: High-mobility group box 1 (cytoplasmic) (rat (endogenous in Lewis rat liver)) (UniProt P63159)
Assay: affinity purification with mass spectrometry; co-IP of rat liver cytoplasmic extract (WI/R 60 min ischemia, 6 h reperfusion; normal liver as comparison) with anti-HMGB1 (N-terminal), 10 mg extract to 10 µg antibody; eluates separated by 2DE, silver stained; spots seen only in WI/R gels excised and identified by MS/MS

Amino acid sequences for entries named in this document (tags omitted).
UniProt P63159: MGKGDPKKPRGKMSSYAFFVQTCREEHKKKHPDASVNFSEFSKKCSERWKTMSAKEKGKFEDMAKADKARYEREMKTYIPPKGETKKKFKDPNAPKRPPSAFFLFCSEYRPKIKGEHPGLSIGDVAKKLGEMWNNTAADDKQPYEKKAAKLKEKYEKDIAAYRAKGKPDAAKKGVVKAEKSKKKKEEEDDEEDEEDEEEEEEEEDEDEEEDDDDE
UniProt P18757: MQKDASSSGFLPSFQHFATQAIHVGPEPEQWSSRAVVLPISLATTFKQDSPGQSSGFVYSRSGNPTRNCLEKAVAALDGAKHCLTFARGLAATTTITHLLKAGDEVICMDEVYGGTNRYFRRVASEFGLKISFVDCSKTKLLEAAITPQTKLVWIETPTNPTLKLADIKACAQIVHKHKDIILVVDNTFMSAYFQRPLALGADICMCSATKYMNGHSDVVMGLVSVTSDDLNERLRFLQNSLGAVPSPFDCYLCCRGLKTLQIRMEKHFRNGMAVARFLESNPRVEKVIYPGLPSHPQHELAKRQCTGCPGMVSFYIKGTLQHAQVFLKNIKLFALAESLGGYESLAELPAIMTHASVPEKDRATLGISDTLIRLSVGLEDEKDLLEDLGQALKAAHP

- binding: binds
Molecule: Cystathionine γ-lyase (from UniProt P18757 1-398) (enzyme)

- binding: binds
B1: Betaine-homocysteine S-methyltransferase 1 (enzyme, UniProt O09171 1-407)
chain: MAPIAGKKAKRGILERLNAGEVVIGDGGFVFALEKRGYVKAGPWTPEAAVEHPEAVRQLHREFLRAGSNVMQTFTFYASEDKLENRGNYVAEKISGQKVNEAACDIARQVADEGDALVAGGVSQTPSYLSCKSETEVKKIFHQQLEVFMKKNVDFLIAEYFEHVEEAVWAVEALKTSGKPIAATMCIGPEGDLHGVSPGECAVRLVKAGAAIVGVNCHFDPSTSLQTIKLMKEGLEAARLKAYLMSHALAYHTPDCGKQGFIDLPEFPFGLEPRVATRWDIQKYAREAYNLGVRYIGGCCGFEPYHIRAIAEELAPERGFLPPASEKHGSWGSGLDMHTKPWIRARARKEYWQNLRIASGRPYNPSMSKPDAWGVTKGAAELMQQKEATTEQQLRALFEKQKFKSAQ

Source: article PMC5297800
